No constants are given. Whether binding was seen depends on the method and setting. A result given as binding can be weak or reduced; the word gives no strength. For part of these data: In cells and extracts the contact can be indirect.
What was measured:
Flag-HOIP (human) = Flag-HOIP (human) (UniProt Q96EP0); test: co-IP; HEK 293T cells co-transfected with Myc-tagged candidate and Flag-HOIP or Flag-OTULIN; lysis in 50 mM Tris-HCl pH 7.4, 150 mM NaCl, 5 mM EDTA, 1% Triton X-100; protein A/G agarose, 4 C overnight; immunoblot
PSMB4 (human) = PSMB4 (human) (UniProt P28070); test: peptide or protein array; HuProt human proteome microarray; 5 ug/5 ml biotin-labelled LUBAC or OTULIN in solution, 1 h at room temperature; Cy5-streptavidin, scanned at 635 nm; BSA as negative control; hits: Z-score >= 3 and I_(Mean_Ratio) >= 1.4; both purified

Sequences of proteins named here, by UniProt entry; tags and fusion partners are left off. A change or cut given only in a name is not applied to a line headed by its entry.
UniProt P28070: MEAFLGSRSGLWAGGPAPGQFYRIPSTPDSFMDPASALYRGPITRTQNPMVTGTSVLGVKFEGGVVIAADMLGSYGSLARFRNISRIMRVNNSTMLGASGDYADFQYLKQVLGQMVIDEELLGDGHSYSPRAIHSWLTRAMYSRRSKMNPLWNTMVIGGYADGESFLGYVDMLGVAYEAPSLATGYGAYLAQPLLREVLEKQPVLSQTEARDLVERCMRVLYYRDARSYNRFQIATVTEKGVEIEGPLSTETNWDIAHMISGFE
UniProt P18627: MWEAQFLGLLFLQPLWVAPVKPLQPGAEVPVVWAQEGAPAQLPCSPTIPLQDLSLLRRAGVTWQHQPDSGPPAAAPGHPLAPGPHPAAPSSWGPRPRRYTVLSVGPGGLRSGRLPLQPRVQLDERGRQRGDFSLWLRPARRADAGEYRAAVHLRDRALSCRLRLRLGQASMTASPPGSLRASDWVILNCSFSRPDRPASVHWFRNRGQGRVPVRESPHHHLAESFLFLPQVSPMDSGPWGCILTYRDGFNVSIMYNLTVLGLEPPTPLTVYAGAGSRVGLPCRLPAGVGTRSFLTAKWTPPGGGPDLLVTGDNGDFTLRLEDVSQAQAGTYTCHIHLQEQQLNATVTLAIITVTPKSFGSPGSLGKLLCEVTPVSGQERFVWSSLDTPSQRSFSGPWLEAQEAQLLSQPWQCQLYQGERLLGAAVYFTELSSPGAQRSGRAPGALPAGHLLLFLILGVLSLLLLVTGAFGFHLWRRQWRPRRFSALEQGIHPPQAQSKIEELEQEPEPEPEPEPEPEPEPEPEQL

binding (Flag-HOIP (human))	binding (PSMB4 (human))	Substance
binds		Myc-LAG3-K0-S484A (from UniProt P18627) (receptor)
binds		Myc-LAG3-K0-S497A (from UniProt P18627) (receptor)
	binds	OTULIN (OTU deubiquitinase with linear linkage specificity, FAM105B), His-tagged, biotin-labelled (from UniProt Q96BN8 1-352) (enzyme)
